PMC7271519
Results are given in words; binding and its absence hold for the method and conditions named. In cells and extracts the contact can be indirect. Some results given as binding are weak or reduced against the parent protein; the word gives no strength. Tags and fused reporters may be left off the sequences shown.

Chains of the proteins cited; added tags and fusions are not shown. Lines headed by an entry give the natural chain unless they say otherwise; changes in a name come on top.
UniProt P14416: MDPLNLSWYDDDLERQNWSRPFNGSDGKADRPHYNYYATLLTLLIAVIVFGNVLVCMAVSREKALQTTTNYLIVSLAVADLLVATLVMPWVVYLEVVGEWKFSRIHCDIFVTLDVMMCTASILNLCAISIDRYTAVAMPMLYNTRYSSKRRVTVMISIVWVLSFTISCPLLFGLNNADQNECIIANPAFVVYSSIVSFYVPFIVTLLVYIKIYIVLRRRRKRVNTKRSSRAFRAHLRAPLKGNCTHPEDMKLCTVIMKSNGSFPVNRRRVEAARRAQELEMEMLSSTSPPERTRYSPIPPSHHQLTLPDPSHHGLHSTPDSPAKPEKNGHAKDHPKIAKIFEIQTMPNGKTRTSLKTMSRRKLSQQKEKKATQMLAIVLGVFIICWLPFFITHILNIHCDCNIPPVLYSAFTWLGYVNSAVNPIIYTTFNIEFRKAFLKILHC

B1: Flag-DISC1 R264Q variant (protein, UniProt Q9NRI5 1-854)
chain: MPGGGPQGAPAAAGGGGVSHRAGSRDCLPPAACFRRRRLARRPGYMRSSTGPGIGFLSPAVGTLFRFPGGVSGEESHHSESRARQCGLDSRGLLVRSPVSKSAAAPTVTSVRGTSAHFGIQLRGGTRLPDRLSWPCGPGSAGWQQEFAAMDSSETLDASWEAACSDGARRVRAAGSLPSAELSSNSCSPGCGPEVPPTPPGSHSAFTSSFSFIRLSLGSAGERGEAEGCPPSREAESHCQSPQEMGAKAASLDGPHEDPRCLSQPFSLLATRVSADLAQAARNSSRPERDMHSLPDMDPGSSSSLDPSLAGCGGDGSSGSGDAHSWDTLLRKWEPVLRDCLLRNRRQMEVISLRLKLQKLQEDAVENDDYDKAETLQQRLEDLEQEKISLHFQLPSRQPALSSFLGHLAAQVQAALRRGATQQASGDDTHTPLRMEPRLLEPTAQDSLHVSITRRDWLLQEKQQLQKEIEALQARMFVLEAKDQQLRREIEEQEQQLQWQGCDLTPLVGQLSLGQLQEVSKALQDTLASAGQIPFHAEPPETIRSLQERIKSLNLSLKEITTKVCMSEKFCSTLRKKVNDIETQLPALLEAKMHAISGNHFWTAKDLTEEIRSLTSEREGLEGLLSKLLVLSSRNVKKLGSVKEDYNRLRREVEHQETAYETSVKENTMKYMETLKNKLCSCKCPLLGKVWEADLEACRLLIQSLQLQEARGSLSVEDERQMDDLEGAAPPIPPRLHSEDKRKTPLKVLEEWKTHLIPSLHCAGGEQKEESYILSAELGEKCEDIGKKLLYLEDQLHTAIHSHDEDLIQSLRRELQMVKETLQAMILQLQPAKEAGEREAAASCMTAGVHEAQA
B2: Flag-DISC1 A83V variant (protein, UniProt Q9NRI5 1-854)
chain: MPGGGPQGAPAAAGGGGVSHRAGSRDCLPPAACFRRRRLARRPGYMRSSTGPGIGFLSPAVGTLFRFPGGVSGEESHHSESRVRQCGLDSRGLLVRSPVSKSAAAPTVTSVRGTSAHFGIQLRGGTRLPDRLSWPCGPGSAGWQQEFAAMDSSETLDASWEAACSDGARRVRAAGSLPSAELSSNSCSPGCGPEVPPTPPGSHSAFTSSFSFIRLSLGSAGERGEAEGCPPSREAESHCQSPQEMGAKAASLDGPHEDPRCLSRPFSLLATRVSADLAQAARNSSRPERDMHSLPDMDPGSSSSLDPSLAGCGGDGSSGSGDAHSWDTLLRKWEPVLRDCLLRNRRQMEVISLRLKLQKLQEDAVENDDYDKAETLQQRLEDLEQEKISLHFQLPSRQPALSSFLGHLAAQVQAALRRGATQQASGDDTHTPLRMEPRLLEPTAQDSLHVSITRRDWLLQEKQQLQKEIEALQARMFVLEAKDQQLRREIEEQEQQLQWQGCDLTPLVGQLSLGQLQEVSKALQDTLASAGQIPFHAEPPETIRSLQERIKSLNLSLKEITTKVCMSEKFCSTLRKKVNDIETQLPALLEAKMHAISGNHFWTAKDLTEEIRSLTSEREGLEGLLSKLLVLSSRNVKKLGSVKEDYNRLRREVEHQETAYETSVKENTMKYMETLKNKLCSCKCPLLGKVWEADLEACRLLIQSLQLQEARGSLSVEDERQMDDLEGAAPPIPPRLHSEDKRKTPLKVLEEWKTHLIPSLHCAGGEQKEESYILSAELGEKCEDIGKKLLYLEDQLHTAIHSHDEDLIQSLRRELQMVKETLQAMILQLQPAKEAGEREAAASCMTAGVHEAQA
B3: Flag-DISC1 (wild type) (protein, UniProt Q9NRI5 1-854)
chain: MPGGGPQGAPAAAGGGGVSHRAGSRDCLPPAACFRRRRLARRPGYMRSSTGPGIGFLSPAVGTLFRFPGGVSGEESHHSESRARQCGLDSRGLLVRSPVSKSAAAPTVTSVRGTSAHFGIQLRGGTRLPDRLSWPCGPGSAGWQQEFAAMDSSETLDASWEAACSDGARRVRAAGSLPSAELSSNSCSPGCGPEVPPTPPGSHSAFTSSFSFIRLSLGSAGERGEAEGCPPSREAESHCQSPQEMGAKAASLDGPHEDPRCLSRPFSLLATRVSADLAQAARNSSRPERDMHSLPDMDPGSSSSLDPSLAGCGGDGSSGSGDAHSWDTLLRKWEPVLRDCLLRNRRQMEVISLRLKLQKLQEDAVENDDYDKAETLQQRLEDLEQEKISLHFQLPSRQPALSSFLGHLAAQVQAALRRGATQQASGDDTHTPLRMEPRLLEPTAQDSLHVSITRRDWLLQEKQQLQKEIEALQARMFVLEAKDQQLRREIEEQEQQLQWQGCDLTPLVGQLSLGQLQEVSKALQDTLASAGQIPFHAEPPETIRSLQERIKSLNLSLKEITTKVCMSEKFCSTLRKKVNDIETQLPALLEAKMHAISGNHFWTAKDLTEEIRSLTSEREGLEGLLSKLLVLSSRNVKKLGSVKEDYNRLRREVEHQETAYETSVKENTMKYMETLKNKLCSCKCPLLGKVWEADLEACRLLIQSLQLQEARGSLSVEDERQMDDLEGAAPPIPPRLHSEDKRKTPLKVLEEWKTHLIPSLHCAGGEQKEESYILSAELGEKCEDIGKKLLYLEDQLHTAIHSHDEDLIQSLRRELQMVKETLQAMILQLQPAKEAGEREAAASCMTAGVHEAQA

target: HA-D2R (dopamine D2 receptor) (UniProt P14416); assay: co-IP; HEK293T cells co-transfected with HA-D2R and Flag-DISC1 (WT, R264Q or A83V); 500-700 ug solubilized protein, anti-HA or IgG with protein A/G plus agarose, 4 °C, 12 h; blotted with anti-Flag and anti-HA

binding, binds:
B1
B2
B3
